## Library screening results

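Whole-cell assay for inhibitors of Mycobacterium tuberculosis growth, labelled Cornell in the record; the read-out is not stated. The concentration is filed as 10 mM, unlikely as a test dose, so the dose is not known. Higher means stronger inhibition (inferred from two other growth screens of the library). Of about 53,000 compounds tested this way, about 900 (1.7%) reached 50% or more in at least one test.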

The filed quantity is “Percent Effect” (%).
The controls that fix the scale are not given in the record; negative values are as filed.
Compounds were drawn at random from those tested, without regard to their results.

{"structure": "Cc1nn(CC(=O)N2CCN(Cc3cnn(C)c3C)CC2)cc1Br", "Percent Effect": -7.407}
{"structure": "O=C1CCN(C(=O)NCc2ccccc2Oc2ccccc2)CCN1", "Percent Effect": -20.29}
{"structure": "CCN(CCN1CCCCCC1)C(=O)COc1cccnc1", "Percent Effect": -20.84}
{"structure": "O=C(NCc1ccc(-n2cncn2)nc1)N(CC1CCOC1)C1CC1", "stereo": "stereo unspecified", "Percent Effect": -8.62}
{"structure": "COc1ccc(-n2cc(CNC(=O)c3ccccn3)nn2)cc1", "Percent Effect": 11.53}
{"structure": "Cc1ccc(F)cc1S(=O)(=O)N1C[C@@H](C)[C@@](C)(O)C1", "Percent Effect": -24.66}
{"structure": "O=C(c1ccc2occc2c1)N1CCC(C(=O)O)(n2cccn2)CC1", "Percent Effect": 19.6}
{"structure": "CCOCCC(=O)NCc1ccnc(NC2CC2)c1", "Percent Effect": 25.64}
{"structure": "CC(C)N1CC2(CCCN(Cc3noc(C4CCCC4)n3)C2)CCC1=O", "stereo": "stereo unspecified", "Percent Effect": -11.12}
{"structure": "O=C(CCN1CCCCCC1c1ccco1)N1CCOCC1", "stereo": "stereo unspecified", "Percent Effect": -0.2314}
{"structure": "CNc1cccc(C2CN(C(=O)CNS(C)(=O)=O)CCO2)n1", "stereo": "stereo unspecified", "Percent Effect": -23.18}
{"structure": "CCN(Cc1ccccn1)C1CCN(c2ccccc2)C1=O", "stereo": "stereo unspecified", "Percent Effect": 8.167}
{"structure": "Cc1cnn(CC2CCCN2C(=O)CCc2nc3ccccc3[nH]2)c1", "stereo": "stereo unspecified", "Percent Effect": 16.22}
{"structure": "O=C(c1ccc2cc[nH]c2c1)N1CCC(Nc2cccnn2)CC1", "Percent Effect": -11.69}
{"structure": "COc1ccc(CN2CCOC[C@H](OCCC(C)C)C2)cc1", "Percent Effect": 8.786}
{"structure": "O=C(O)C(F)(F)F.[H][C@@]12CCN(Cc3cn(C)c4ccccc34)[C@]1([H])CC[C@@H](C(=O)NC)O2", "Percent Effect": -12.25}
{"structure": "COc1ccc(-c2ccc(C(=O)NS(C)(=O)=O)c(F)c2)c(F)c1", "Percent Effect": 23.76}
{"structure": "O=C(c1cccc(S(=O)(=O)NCCCn2cccn2)c1)N1CCOCC1", "Percent Effect": 5.432}
{"structure": "NC(=O)Cn1nc(-c2ccccc2F)ccc1=O", "Percent Effect": -18.11}
{"structure": "Cl.Cn1ccnc1CNC(=O)c1cncc(C2CCNCC2)n1", "Percent Effect": 48.2}
{"structure": "O=C1CN(C(=O)[C@H]2CC[C@]3(CC2)CNC(=O)c2ccccc2O3)CCN1", "Percent Effect": -6.339}
{"structure": "NC(=O)CC1CCN(c2ncnc3cccc(F)c23)CC1", "Percent Effect": 1.413}
{"structure": "COc1ccc2c(c1OC)Cc1c-2nc(N)c(C#N)c1C1CCOC1", "stereo": "stereo unspecified", "Percent Effect": 7.23}
{"structure": "COc1ccc(CC(=O)N2CCN(C)c3ncccc3C2)cc1.O=C(O)C(F)(F)F", "Percent Effect": -40.64}
{"structure": "CN(C(=O)Nc1ccncc1)C1CCN(c2ccc(Cl)cc2)CC1", "Percent Effect": 20.03}
{"structure": "CC(=O)c1cccc(NC(=O)Cn2nc(-c3cccs3)oc2=O)c1", "Percent Effect": -19.71}
{"structure": "Cc1ccc2nc(CN3CCC(O)(Cn4ccnc4)CC3)cc(O)c2c1", "Percent Effect": 23.4}
{"structure": "CN(C)c1ncc(CNC2CC(=O)N(CCc3cccc(Cl)c3)C2)s1", "stereo": "stereo unspecified", "Percent Effect": -26.56}
{"structure": "Cl.Cl.O[C@@H]1C[C@@](CNCc2ccc(Cl)cc2)(COc2cccnc2)C[C@@H]1O", "Percent Effect": 11.54}

Measurements from “University of Dundee, Small-Polar-MMV Screening Library” (2021), ChEMBL document CHEMBL3988442.